Laboratory results from patent US11534410B2, “Amphotericin loaded PEGylated lipid nanoparticles and methods of use” (University of Mississippi, priority 2018, dated 2022).
Converted amounts (≈) assume the structure as drawn.

Tested on: Aspergillus fumigatus (ATCC 204305)
Test: Microdilution (CLSI) antifungal assay
Format: cell-based
Conditions: Day1

C[C@@H]1[C@H](O)[C@@H](C)/C=C/C=C/C=C/C=C/C=C/C=C/C=C/[C@H](O[C@@H]2O[C@H](C)[C@@H](O)[C@H](N)[C@@H]2O)C[C@@H]2O[C@](O)(C[C@@H](O)C[C@@H](O)[C@H](O)CC[C@@H](O)C[C@@H](O)CC(=O)O[C@H]1C)C[C@H](O)[C@H]2C(=O)O [AmB, Amphotericin B]
MIC: 2.5 µg/mL (≈ 2.71 µM)
